# PubChem BioAssay AID248 (DTP/NCI, 2004)
# The list does not hold the whole screen: it gathers tests that were run many times, whatever their T/C, doses with no T/C, and many T/C values between a quarter and a half above the control. Other doses and runs of a compound stand elsewhere. T/C is the treated group as % of the vehicle group. Some doses have a count of surviving animals in place of a T/C: the source holds a T/C of zero for them, seemingly a mark for toxic or unscored doses. Some survivor counts are full or nearly so, which does not show that the dose was tolerated: the source hardly ever lists a survival T/C far under the control, and the zero likely stands for such cases as well. Survivors were counted at the toxicity check, usually on the fifth day, unless a day is given; later deaths do not show. Schedule codes are those of the source, taken here to give the interval after Q, in days (D) or hours (H), and the number of doses after X. Some entries hold several experiments; the values are given in rising order. Some schedule codes hold Z or #, which are not explained here. Where survival is the endpoint, this PubChem deposit counts one and a half times the control or more as active, and values a quarter to a half above the control carry no call in these data; other NCI protocols may use other cut-offs. Some T/C values carry the count of animals alive at the toxicity check (mostly the fifth day); where none is given, no animal had died by that day.
# Tested on: L1210 leukemia ip in BDF1 mice, survival T/C
# Test: NCI In Vivo Anticancer Drug Screen. Data for tumor model L1210 Leukemia (intraperitoneal) in B6D2F1 (BDF1) mice
# Conditions: T/C endpoint: mean survival time, higher T/C = longer survival
# [1] = dose: 150.0 mg/kg/injection, schedule: Q01DX001 (ip), vehicle: saline
# [2] = dose: 300.0 mg/kg/injection, schedule: Q01DX001 (ip), vehicle: saline
# [3] = dose: 100.0 mg/kg/injection, schedule: Q01DX009 (ip), vehicle: saline with Tween-80
# [4] = dose: 400.0 mg/kg/injection, schedule: Q01DX001 (ip), vehicle: saline with Tween-80
# [5] = dose: 400.0 mg/kg/injection, schedule: Q01DX009 (ip), vehicle: saline with Tween-80
compound,measurement,setting,value
O=[N+]([O-])/C=C/c1ccc(F)cc1,survivor count,"dose: 150.0 mg/kg/injection, schedule: Q01DX001 (ip), vehicle: alcohol",1 of 6
same,survivor count,"dose: 300.0 mg/kg/injection, schedule: Q01DX001 (ip), vehicle: alcohol",1 of 6
Clc1nc2nc3n(c2nc1Cl)CCC3(Br)Br,survivor count,"dose: 25.0 mg/kg/injection, schedule: Q01DX009 (ip), vehicle: other",5 of 6
same,survivor count,"dose: 50.0 mg/kg/injection, schedule: Q01DX009 (ip), vehicle: other",6 of 6
same,survivor count,"dose: 100.0 mg/kg/injection, schedule: Q01DX009 (ip), vehicle: other",4 of 6
same,survivor count,"dose: 200.0 mg/kg/injection, schedule: Q01DX009 (ip), vehicle: other",6 of 6
same,survivor count,"dose: 400.0 mg/kg/injection, schedule: Q01DX009 (ip), vehicle: other",2 of 6
C=CCC1(OC(C)=O)CCN(C)CC1,survivor count,[1],2 of 6
same,survivor count,[2],0 of 6
Cc1c(N=NN(C)C)c(=O)n(-c2ccccc2)n1C,survivor count,[3],5 of 6
same,survivor count,"dose: 200.0 mg/kg/injection, schedule: Q01DX001 (ip), vehicle: saline with Tween-80",0 of 6
same,survivor count,[4],0 of 6
CC(CC(=O)O)C(C(=O)O)C(=O)O (centres undefined),survivor count,"dose: 400.0 mg/kg/injection, schedule: Q01DX009 (ip), vehicle: water",0 of 6
OC1(Cc2nccc3ccccc23)CCN(Cc2ccccc2)CC1,survivor count,"dose: 400.0 mg/kg/injection, schedule: Q04DX003 (ip), vehicle: carboxymethylcellulose (CMC)",0 of 6
COC(=O)c1ccc(OC(=O)Nc2ccccc2[N+](=O)[O-])cc1,survivor count,[5],5 of 6 and 3 of 3
same,survivor count,"dose: 400.0 mg/kg/injection, schedule: Q04DX002 (ip), vehicle: saline with Tween-80",2 of 3
COc1cc2c(cc1Cl)nc1c(=O)[nH]c(=O)nc-1n2CCN1CCCC1,T/C,"dose: 35.0 mg/kg/injection, schedule: Q01DX Z (ip), vehicle: methylcellulose (MC)",127 % of control [6 of 7 alive]
C=CCOCC(O)CN(CC(C)C)CC(C)C (centres undefined),survivor count,"dose: 400.0 mg/kg/injection, schedule: Q01DX009 (ip), vehicle: Klucel (hydroxypropylcellulose) (HPC)",1 of 6
CN(C)c1ncnc2c1ncn2Cc1ccccc1,survivor count,[4],0 of 3
CC[N+](C)(CC)CCCNC(c1ccc(OC)cc1)C(Cl)(Cl)Cl (centres undefined),survivor count,"dose: 75.0 mg/kg/injection, schedule: Q01DX001 (ip), vehicle: saline",1 of 6
same,survivor count,[1],0 of 6
same,survivor count,[2],0 of 6
O=C1C=CC2(CCC23C=CC(=O)O3)O1 (centres undefined),survivor count,"dose: 65.0 mg/kg/injection, schedule: Q01DX Z (ip), vehicle: saline",4 of 7
same,survivor count,"dose: 100.0 mg/kg/injection, schedule: Q01DX Z (ip), vehicle: saline",0 of 7
same,survivor count,"dose: 150.0 mg/kg/injection, schedule: Q01DX Z (ip), vehicle: saline",0 of 7
C[C@]12CCC(=O)C=C1[C@@H](F)C[C@@H]1[C@@H]2[C@@H](O)C[C@@]2(C)[C@H]1CC[C@]2(O)C(=O)CO,survivor count,"dose: 600.0 mg/kg/injection, schedule: Q01DX015 (ip), vehicle: saline",4 of 6
Cc1cc(C)c(NC(N)=S)cc1C,survivor count,"dose: 400.0 mg/kg/injection, schedule: Q04DX002 (ip), vehicle: Klucel (hydroxypropylcellulose) (HPC)",3 of 3
O=C(O)c1ccc(NC(=O)c2ccc3ccccc3c2O)cc1,survivor count,[5],0 of 6
S=C=Nc1ccc(Cl)c(Cl)c1,survivor count,[3],0 of 6
same,survivor count,"dose: 200.0 mg/kg/injection, schedule: Q01DX009 (ip), vehicle: saline with Tween-80",0 of 6
same,survivor count,[5],0 of 6
Cc1cc(C(=O)Nc2ccc(NC3=NCCN3)cc2)c(C)cc1C(=O)Nc1ccc(NC2=NCCN2)cc1,survivor count,"dose: 0.94 mg/kg/injection, schedule: Q01DX Z (ip), vehicle: saline",6 of 6
same,survivor count,"dose: 60.0 mg/kg/injection, schedule: Q01DX Z (ip), vehicle: saline",0 of 6
same,survivor count,"dose: 120.0 mg/kg/injection, schedule: Q01DX Z (ip), vehicle: saline",0 of 6
